This assay addresses Sgg-FLAG (Shaggy, the Drosophila GSK3β homologue) (Drosophila melanogaster) (UniProt P18431). Nature of the assay: co-IP; S2 cells co-transfected with hyd (mutant) and sgg-FLAG constructs; FLAG-affinity purified complexes analysed by Western blot. A general note: Immunoblotting shows a protein as a band on a membrane.

The chains behind the UniProt entries cited, without tags or fusion partners. Where a name states a change or a piece, a line headed by the entry shows the natural chain unless it says otherwise.
UniProt P18431: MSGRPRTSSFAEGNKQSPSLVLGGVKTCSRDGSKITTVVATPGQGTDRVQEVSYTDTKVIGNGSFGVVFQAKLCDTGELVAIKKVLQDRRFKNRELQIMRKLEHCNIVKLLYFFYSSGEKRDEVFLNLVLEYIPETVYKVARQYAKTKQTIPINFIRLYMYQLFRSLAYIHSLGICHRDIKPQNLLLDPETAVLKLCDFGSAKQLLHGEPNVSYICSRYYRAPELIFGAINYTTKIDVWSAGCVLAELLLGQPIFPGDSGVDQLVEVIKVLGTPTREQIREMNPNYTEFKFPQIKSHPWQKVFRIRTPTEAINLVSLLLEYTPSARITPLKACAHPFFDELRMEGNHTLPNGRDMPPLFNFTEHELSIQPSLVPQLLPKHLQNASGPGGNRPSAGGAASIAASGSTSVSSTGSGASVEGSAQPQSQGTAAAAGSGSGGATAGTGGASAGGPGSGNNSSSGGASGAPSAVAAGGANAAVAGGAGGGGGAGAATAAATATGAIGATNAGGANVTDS
UniProt P51592: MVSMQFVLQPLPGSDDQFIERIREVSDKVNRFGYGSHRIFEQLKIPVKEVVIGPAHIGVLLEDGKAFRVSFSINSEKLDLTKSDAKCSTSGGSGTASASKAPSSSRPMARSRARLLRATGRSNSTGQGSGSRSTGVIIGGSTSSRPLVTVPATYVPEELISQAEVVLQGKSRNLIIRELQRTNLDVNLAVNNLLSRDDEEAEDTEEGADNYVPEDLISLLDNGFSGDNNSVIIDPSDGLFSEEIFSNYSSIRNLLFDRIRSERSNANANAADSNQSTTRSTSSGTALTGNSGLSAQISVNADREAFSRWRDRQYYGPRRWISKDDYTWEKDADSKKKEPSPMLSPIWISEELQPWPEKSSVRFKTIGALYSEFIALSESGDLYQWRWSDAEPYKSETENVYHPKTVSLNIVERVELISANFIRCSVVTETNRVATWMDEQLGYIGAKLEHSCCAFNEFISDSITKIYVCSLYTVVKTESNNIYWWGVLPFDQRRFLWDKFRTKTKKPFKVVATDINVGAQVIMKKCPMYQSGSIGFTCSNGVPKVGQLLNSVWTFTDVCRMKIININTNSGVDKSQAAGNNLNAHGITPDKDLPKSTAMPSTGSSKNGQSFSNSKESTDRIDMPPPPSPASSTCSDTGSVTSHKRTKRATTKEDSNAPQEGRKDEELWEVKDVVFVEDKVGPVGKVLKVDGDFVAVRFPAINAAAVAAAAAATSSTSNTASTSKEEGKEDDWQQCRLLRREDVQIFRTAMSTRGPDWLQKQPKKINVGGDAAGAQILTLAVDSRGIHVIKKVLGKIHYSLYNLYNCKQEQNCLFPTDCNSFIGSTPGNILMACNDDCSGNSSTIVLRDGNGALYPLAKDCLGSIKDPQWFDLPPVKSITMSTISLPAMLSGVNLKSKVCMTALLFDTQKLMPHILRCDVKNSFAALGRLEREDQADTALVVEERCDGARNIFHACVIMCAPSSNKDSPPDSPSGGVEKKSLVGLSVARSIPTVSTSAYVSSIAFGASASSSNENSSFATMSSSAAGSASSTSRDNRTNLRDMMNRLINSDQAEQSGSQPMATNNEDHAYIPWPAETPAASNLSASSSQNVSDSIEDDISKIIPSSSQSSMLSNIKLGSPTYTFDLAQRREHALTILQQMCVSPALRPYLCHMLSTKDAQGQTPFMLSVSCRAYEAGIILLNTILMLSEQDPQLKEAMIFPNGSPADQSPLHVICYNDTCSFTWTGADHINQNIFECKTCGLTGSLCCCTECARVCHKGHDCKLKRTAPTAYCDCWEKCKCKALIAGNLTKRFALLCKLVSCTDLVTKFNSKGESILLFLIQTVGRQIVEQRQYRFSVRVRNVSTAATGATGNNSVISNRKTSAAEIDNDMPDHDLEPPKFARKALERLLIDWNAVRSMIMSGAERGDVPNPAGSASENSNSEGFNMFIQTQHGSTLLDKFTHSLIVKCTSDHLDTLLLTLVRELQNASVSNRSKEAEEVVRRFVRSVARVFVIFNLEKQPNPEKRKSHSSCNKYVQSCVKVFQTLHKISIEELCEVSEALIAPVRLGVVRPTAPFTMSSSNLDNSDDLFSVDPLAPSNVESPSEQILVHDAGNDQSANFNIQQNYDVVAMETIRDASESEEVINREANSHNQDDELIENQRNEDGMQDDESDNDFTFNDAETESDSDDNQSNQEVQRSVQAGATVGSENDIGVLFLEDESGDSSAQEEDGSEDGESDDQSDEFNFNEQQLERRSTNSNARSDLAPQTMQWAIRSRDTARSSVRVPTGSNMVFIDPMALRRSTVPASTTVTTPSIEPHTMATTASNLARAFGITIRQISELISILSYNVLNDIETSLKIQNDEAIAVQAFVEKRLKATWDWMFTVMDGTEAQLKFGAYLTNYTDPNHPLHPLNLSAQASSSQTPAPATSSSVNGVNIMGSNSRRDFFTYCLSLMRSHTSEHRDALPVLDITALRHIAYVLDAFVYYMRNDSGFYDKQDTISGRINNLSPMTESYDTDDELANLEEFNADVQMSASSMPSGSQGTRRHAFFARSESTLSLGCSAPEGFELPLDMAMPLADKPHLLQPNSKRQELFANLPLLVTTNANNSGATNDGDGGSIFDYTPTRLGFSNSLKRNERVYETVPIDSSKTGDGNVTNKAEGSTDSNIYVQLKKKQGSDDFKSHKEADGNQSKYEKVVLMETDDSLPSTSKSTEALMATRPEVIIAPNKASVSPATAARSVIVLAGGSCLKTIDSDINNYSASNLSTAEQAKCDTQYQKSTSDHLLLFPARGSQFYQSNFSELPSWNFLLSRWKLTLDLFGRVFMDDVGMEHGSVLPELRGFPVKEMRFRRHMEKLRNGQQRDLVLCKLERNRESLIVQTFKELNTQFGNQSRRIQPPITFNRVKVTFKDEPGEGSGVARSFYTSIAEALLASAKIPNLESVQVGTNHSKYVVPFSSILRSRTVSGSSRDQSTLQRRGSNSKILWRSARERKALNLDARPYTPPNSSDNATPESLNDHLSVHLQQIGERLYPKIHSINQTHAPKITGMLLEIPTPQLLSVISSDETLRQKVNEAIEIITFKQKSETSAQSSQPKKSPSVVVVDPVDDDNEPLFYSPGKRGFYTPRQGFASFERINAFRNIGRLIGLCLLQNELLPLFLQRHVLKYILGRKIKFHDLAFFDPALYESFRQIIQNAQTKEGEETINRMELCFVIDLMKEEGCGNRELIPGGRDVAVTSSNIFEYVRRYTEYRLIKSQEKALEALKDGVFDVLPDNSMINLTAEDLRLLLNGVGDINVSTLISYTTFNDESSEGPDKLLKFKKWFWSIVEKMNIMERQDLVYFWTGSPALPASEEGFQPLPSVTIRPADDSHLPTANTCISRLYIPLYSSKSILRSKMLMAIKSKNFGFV

No constants are given. Whether binding was seen depends on the method and setting. In cells and extracts the contact can be indirect. Binding calls can cover weak binding; strength is not graded here.

Here are results for one substance from PMC4559392.

Consider “Hyd PABC^mt (Y2509A+C2527A) (from UniProt P51592)”, for which the binding result is listed as “binds”.
